Data reported in the supplement of paper PMC6411743.
± gives the standard deviation of the averaged measurements. The entries are a selection whose mix differs from that of the whole data set. Small differences around the control level are noise.

Sequences of proteins named here, by UniProt entry; tags and fusion partners are left off. A change or cut given only in a name is not applied to a line headed by its entry.
UniProt Q6PJG2: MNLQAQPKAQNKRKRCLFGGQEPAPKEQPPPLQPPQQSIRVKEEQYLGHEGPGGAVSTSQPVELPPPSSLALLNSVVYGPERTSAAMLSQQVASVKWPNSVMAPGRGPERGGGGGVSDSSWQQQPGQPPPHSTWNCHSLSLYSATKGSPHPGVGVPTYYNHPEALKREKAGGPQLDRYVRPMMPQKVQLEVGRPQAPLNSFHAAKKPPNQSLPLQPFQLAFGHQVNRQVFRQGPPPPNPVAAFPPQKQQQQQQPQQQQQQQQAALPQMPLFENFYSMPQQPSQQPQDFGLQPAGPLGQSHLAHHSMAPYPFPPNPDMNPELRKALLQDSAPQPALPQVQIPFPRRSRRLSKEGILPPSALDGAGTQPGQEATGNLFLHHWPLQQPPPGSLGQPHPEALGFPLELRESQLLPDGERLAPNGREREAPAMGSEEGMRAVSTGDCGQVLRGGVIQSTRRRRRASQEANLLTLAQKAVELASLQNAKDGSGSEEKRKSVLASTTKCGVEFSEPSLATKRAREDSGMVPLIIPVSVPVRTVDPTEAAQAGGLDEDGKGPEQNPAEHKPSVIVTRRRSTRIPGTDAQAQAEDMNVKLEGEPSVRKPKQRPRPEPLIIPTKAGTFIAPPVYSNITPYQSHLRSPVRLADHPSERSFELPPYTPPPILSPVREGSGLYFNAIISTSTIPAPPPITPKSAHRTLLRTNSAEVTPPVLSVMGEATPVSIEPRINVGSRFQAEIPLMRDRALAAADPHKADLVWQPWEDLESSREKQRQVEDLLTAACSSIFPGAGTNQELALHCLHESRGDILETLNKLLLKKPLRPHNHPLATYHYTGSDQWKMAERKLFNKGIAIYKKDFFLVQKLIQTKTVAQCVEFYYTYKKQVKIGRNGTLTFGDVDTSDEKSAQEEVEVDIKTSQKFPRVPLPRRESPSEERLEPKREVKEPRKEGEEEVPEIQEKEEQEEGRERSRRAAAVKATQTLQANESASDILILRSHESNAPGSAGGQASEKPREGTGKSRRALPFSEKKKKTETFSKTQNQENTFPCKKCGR
UniProt Q8IU85: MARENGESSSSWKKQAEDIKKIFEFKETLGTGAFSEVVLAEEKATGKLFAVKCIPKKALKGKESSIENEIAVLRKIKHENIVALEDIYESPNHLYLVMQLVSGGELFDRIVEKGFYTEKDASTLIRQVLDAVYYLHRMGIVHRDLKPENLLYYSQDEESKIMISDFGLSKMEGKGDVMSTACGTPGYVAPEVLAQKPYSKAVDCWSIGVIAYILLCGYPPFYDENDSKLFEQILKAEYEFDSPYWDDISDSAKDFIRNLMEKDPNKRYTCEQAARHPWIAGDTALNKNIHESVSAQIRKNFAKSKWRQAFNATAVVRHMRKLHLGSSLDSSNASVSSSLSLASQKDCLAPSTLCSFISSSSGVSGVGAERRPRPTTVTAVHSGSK
UniProt Q86WA6: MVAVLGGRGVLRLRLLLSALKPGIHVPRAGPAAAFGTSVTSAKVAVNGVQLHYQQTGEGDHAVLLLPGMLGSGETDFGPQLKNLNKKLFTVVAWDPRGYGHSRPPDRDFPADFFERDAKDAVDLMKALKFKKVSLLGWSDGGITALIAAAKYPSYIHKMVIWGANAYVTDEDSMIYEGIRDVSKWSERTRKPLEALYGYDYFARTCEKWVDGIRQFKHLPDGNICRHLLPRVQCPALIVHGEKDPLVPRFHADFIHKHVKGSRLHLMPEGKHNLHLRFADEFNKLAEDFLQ
UniProt Q7L0J3, whole entry: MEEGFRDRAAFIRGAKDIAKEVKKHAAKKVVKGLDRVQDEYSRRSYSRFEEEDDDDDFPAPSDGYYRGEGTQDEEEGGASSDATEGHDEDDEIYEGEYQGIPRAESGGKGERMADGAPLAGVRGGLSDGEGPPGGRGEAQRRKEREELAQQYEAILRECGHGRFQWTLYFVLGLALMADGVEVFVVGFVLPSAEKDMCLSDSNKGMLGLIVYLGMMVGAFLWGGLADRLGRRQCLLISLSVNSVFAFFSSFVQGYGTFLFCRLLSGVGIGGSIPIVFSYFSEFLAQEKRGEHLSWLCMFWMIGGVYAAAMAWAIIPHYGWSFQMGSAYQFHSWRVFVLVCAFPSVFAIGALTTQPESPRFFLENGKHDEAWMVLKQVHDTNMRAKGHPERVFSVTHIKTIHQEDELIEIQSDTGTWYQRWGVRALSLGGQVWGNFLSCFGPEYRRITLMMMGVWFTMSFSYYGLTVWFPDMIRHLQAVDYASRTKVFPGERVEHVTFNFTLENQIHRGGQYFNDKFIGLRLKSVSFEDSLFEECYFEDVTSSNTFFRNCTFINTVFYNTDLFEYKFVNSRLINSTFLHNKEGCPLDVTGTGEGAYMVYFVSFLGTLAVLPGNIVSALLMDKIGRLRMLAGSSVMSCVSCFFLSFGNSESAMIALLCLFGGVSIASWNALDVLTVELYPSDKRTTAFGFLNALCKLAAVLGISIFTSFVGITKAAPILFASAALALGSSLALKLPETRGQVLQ
UniProt Q86V88: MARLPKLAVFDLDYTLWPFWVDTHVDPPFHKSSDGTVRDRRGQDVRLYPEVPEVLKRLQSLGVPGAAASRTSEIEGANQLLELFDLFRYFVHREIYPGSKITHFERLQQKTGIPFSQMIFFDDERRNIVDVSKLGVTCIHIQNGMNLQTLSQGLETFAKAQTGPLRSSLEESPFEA
UniProt Q7Z3T8: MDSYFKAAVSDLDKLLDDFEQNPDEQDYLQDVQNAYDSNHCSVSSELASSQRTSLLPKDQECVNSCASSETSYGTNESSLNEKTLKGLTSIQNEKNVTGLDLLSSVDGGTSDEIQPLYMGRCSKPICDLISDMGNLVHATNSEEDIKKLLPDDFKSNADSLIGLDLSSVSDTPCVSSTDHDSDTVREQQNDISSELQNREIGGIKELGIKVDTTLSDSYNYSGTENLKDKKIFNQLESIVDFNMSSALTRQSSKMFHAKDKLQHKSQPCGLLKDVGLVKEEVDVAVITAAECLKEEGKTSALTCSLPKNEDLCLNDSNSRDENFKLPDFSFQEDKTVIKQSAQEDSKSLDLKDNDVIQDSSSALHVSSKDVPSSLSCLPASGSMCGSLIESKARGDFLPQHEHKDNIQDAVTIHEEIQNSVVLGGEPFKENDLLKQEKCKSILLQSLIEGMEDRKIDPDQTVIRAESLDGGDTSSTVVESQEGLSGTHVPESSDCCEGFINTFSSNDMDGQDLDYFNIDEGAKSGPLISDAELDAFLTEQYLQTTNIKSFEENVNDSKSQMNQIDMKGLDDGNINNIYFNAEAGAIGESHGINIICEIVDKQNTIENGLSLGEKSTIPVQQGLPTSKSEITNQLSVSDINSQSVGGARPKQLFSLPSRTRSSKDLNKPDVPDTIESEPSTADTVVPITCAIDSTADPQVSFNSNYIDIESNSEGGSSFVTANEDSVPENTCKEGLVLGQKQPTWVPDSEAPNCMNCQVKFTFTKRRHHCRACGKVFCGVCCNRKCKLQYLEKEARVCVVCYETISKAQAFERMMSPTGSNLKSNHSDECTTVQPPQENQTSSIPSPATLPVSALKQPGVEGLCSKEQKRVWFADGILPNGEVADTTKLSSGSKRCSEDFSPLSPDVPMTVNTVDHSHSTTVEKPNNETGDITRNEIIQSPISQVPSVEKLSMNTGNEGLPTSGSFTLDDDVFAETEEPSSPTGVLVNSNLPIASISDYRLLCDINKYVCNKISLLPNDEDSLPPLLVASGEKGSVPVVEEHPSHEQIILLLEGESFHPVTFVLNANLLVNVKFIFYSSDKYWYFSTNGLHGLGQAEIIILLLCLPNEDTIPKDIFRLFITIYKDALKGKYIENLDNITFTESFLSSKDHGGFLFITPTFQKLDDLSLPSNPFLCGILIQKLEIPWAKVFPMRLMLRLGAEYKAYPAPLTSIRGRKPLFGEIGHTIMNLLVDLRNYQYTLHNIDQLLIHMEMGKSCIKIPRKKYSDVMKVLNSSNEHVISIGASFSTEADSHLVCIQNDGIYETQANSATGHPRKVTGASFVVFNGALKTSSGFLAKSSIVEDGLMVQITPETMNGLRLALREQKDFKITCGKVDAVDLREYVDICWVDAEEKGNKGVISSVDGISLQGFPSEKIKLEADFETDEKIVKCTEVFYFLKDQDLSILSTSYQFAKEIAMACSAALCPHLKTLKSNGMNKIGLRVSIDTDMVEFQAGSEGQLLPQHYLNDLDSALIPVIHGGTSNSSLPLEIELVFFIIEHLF
UniProt Q86XN8: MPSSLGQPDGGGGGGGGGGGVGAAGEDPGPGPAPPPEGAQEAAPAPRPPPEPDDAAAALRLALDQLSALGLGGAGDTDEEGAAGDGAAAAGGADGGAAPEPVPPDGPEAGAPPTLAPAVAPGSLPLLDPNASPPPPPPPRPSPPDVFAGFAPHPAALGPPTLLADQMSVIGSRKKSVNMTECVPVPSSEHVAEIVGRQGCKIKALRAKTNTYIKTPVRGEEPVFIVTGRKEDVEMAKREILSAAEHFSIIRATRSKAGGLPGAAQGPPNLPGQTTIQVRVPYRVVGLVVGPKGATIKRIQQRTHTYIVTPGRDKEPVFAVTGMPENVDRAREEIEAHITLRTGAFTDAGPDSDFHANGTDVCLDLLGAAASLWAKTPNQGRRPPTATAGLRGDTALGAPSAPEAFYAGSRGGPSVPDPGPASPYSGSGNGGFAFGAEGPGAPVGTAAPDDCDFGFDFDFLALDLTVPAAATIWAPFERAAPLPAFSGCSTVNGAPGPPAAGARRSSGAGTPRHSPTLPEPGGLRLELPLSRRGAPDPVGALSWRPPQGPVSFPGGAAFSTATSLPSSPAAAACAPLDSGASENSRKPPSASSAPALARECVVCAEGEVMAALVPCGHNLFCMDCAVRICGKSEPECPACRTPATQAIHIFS
UniProt Q6UXV4: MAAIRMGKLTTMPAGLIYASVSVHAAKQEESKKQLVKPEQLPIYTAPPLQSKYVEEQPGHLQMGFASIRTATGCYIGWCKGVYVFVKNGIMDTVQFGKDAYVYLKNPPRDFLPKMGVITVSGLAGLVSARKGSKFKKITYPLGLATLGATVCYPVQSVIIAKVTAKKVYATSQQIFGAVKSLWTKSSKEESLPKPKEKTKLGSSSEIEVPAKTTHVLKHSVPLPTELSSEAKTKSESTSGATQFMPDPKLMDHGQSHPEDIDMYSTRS
UniProt Q6Y288: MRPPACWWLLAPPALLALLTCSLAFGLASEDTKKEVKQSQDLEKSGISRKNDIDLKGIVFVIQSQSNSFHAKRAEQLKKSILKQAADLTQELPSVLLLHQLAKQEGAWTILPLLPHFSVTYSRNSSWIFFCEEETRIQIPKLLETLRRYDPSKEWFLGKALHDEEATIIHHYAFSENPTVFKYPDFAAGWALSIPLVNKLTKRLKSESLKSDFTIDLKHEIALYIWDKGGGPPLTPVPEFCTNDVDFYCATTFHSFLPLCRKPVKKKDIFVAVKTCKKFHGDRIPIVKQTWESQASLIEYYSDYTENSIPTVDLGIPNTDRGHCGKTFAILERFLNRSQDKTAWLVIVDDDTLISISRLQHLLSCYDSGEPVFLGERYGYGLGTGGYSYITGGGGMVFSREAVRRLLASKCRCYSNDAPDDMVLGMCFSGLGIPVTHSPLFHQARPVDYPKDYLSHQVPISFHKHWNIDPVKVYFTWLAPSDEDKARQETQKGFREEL
UniProt Q7L3B6: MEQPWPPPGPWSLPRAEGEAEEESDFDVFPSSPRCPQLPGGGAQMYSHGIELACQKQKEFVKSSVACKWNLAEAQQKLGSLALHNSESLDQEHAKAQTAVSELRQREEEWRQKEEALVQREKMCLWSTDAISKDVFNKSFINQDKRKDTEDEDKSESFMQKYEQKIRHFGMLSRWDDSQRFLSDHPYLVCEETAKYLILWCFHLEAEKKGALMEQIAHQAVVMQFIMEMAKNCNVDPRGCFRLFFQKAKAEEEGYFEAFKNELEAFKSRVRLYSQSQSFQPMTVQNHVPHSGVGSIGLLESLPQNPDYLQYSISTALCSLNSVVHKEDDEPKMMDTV
UniProt Q6UWW8: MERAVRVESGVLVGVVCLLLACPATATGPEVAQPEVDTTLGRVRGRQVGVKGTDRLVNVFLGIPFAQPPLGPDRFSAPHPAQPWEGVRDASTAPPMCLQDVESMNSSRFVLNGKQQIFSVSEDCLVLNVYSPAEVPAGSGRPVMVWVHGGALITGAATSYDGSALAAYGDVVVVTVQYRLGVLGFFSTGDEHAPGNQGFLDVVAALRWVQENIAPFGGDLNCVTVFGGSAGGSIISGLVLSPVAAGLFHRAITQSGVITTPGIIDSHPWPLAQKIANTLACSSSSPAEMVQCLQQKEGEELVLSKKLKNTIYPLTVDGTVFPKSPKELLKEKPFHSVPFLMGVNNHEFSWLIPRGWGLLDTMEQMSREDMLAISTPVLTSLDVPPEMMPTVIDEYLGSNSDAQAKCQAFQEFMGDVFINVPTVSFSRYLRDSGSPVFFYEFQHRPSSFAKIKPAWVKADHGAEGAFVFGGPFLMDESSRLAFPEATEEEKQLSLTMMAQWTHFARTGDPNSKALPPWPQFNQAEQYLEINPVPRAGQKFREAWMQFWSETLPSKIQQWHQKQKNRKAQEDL

Each target was assayed with Nc1ncnc2c1ncn2[C@@H]1O[C@H](COP(=O)(O)OP(=O)(O)OP(=O)(O)O)[C@@H](O)[C@H]1O [adenosine triphosphate] (assay: NP40-soluble protein abundance relative to vehicle (solubility fold change) (ratio); higher = more soluble protein in presence of ATP). Details: concentration: 0.5mM.
Outline: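 Each value is a fold change relative to the detergent-processed vehicle, calculated per replicate from vsn-normalised intensities. Jurkat crude lysate received eight concentrations (0.1 to 10 mM) for 10 min at room temperature and 3 min at 37 °C, then was solubilised in 0.8% NP40 with benzonase (60 min, 4 °C). The ultracentrifuged supernatant was TMT-labelled and run by LC-MS/MS in three independent experiments.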

Target	NP40-soluble protein abundance
CACUL1 (UniProt Q86Y37)	0.974 ± 0.029
UniProt Q6PJG2 and related entries	1.09 ± 0.053
UniProt Q8IU85 and related entries	1.11 ± 0.061
UniProt Q86UK7 and related entries	1.04 ± 0.011
UniProt Q6ZNW5	1.02 ± 0.074
CMC1 (UniProt Q7Z7K0)	0.889 ± 0.1
PLD3 (UniProt Q8IV08)	0.896 ± 0.076
UniProt Q7L0Y3	0.99 ± 0.011
UniProt Q6SJ93 and related entries	0.958 ± 0.098
UniProt Q8IUQ4 and related entries	0.932 ± 0.072
IRF2BP1 (UniProt Q8IU81)	0.981 ± 0.04
UniProt Q86WA6 and related entries	0.987 ± 0.06
HPS6 (UniProt Q86YV9)	0.964 ± 0.033
UniProt Q6ZVM7 and related entries	0.926 ± 0.029
UniProt Q86TN4 and related entries	0.997 ± 0.029
UniProt Q7L0J3 and related entries	0.971 ± 0.035
ENOSF1 (UniProt Q7L5Y1)	1.04 ± 0.06
DYM (UniProt Q7RTS9)	0.983 ± 0.021
ANKMY2 (UniProt Q8IV38)	1.01 ± 0.035

Target	NP40-soluble protein abundance
UniProt Q86V88 and related entries	0.814 ± 0.047
ZFYVE16 (UniProt Q7Z3T8)	0.999 ± 0.024
UniProt Q86XN8 and related entries	0.94 ± 0.24
RABEPK (UniProt Q7Z6M1)	1.02 ± 0.046
UniProt Q7Z2K6 and related entries	1.08 ± 0.039
APOOL (UniProt Q6UXV4)	0.972 ± 0.012
ANKRD11 (UniProt Q6UB99)	0.9669 ± 0.0033
UniProt Q86VP1-2|B8ZZD4	1.01 ± 0.032
UniProt Q6Y288	0.99 ± 0.068
TSPYL5 (UniProt Q86VY4)	0.986 ± 0.038
UniProt Q7Z2Z1 and related entries	1.02 ± 0.019
UniProt Q7L3B6 and related entries	0.957 ± 0.049
TMEM65 (UniProt Q6PI78)	1.02 ± 0.051
UniProt Q7KYR7 and related entries	1.11 ± 0.19
CES3 (UniProt Q6UWW8)	1.01 ± 0.089
UniProt Q6UWI4	0.865 ± 0.11
UniProt Q86U86 and related entries	1.22 ± 0.046
UniProt Q6R327 and related entries	1.19 ± 0.078

As entered above:
UniProt Q86U86 and related entries – NP40-soluble protein abundance: 1.22 ± 0.046
UniProt Q6UWI4 – NP40-soluble protein abundance: 0.865 ± 0.11
